The record followed here is paper doi:10.1101/2021.11.04.467245 (bioRxiv, 2021).

The chains behind the UniProt entries cited, without tags or fusion partners. Where a name states a change or a piece, a line headed by the entry shows the natural chain unless it says otherwise. Residues count along the entry.
UniProt Q921C5: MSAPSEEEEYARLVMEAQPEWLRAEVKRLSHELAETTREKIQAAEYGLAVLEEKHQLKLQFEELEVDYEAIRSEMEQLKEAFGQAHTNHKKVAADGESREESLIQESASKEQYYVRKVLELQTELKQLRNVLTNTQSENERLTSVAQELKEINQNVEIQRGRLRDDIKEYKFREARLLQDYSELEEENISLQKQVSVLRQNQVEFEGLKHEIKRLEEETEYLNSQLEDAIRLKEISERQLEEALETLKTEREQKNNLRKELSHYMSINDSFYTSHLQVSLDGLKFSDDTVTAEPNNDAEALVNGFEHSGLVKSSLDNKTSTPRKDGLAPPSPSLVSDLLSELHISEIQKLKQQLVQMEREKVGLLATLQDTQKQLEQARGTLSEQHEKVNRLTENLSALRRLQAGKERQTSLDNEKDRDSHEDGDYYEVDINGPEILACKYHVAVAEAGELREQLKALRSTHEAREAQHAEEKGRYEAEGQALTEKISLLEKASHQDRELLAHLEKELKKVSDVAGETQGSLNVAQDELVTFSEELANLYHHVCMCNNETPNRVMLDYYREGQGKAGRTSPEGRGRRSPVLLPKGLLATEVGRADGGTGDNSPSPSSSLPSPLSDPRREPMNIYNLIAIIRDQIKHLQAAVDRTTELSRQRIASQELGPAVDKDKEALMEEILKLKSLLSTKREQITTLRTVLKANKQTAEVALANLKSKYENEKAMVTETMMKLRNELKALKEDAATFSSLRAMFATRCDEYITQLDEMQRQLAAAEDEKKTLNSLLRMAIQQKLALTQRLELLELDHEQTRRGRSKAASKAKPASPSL
GFP-BICD2 [1-575]: residues 1-575 of Q921C5
UniProt Q8TD16: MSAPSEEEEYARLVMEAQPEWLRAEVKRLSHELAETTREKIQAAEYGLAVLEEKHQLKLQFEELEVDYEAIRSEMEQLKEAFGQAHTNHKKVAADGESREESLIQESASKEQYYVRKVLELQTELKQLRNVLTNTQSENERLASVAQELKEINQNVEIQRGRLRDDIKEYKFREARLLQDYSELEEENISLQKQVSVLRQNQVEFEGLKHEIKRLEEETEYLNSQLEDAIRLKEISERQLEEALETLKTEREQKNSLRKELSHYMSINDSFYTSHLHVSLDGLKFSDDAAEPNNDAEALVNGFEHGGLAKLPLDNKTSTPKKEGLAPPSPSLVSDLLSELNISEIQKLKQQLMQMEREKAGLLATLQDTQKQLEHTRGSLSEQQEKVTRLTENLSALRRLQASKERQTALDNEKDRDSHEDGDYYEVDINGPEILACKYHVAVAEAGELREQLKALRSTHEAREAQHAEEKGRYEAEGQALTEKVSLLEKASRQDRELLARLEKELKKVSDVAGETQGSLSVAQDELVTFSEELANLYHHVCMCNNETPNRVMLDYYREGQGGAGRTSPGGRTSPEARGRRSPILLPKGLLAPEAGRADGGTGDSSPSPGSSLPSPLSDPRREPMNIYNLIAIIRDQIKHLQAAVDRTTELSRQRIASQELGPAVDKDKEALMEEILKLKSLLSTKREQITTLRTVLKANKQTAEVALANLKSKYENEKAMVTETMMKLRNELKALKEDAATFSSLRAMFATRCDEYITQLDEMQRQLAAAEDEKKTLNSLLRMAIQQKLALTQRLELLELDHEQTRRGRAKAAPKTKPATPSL

Common to all, as to experiment: co-IP
In test [1] the target is GFP-BICD2 [1-575] (mouse) (UniProt Q921C5).
Test [2] addresses GFP-BICD2 wild type (mouse) (UniProt Q921C5).
For test [3], the target named is BICD2 (endogenous, HeLa) (human (endogenous in HeLa)) (UniProt Q8TD16).
Test [4] deals with GFP-BICD2 [T319A, S320A, T321A] (mouse) (UniProt Q921C5).

Results are given in words; binding and its absence hold for the method and conditions named. Binding seen in cells or lysates may run through a third protein. Some results given as binding are weak or reduced against the parent protein; the word gives no strength.

Regarding “PLK1 (endogenous, HeLa) (from UniProt P53350 1-603) (enzyme)”, the binding entry is “binds” in test [1], “binds” in test [2], “binds” in test [3] and “no binding” in test [4].
